# The supplement of paper PMC4604168 (melanoma cell lines)
# The list shows a part of the results. Many values rest on one well or one pass, so single values are uncertain.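 The apoptosis fraction was the count of cleaved-PARP antibody-stained nuclei relative to all DNA-stained nuclei, imaged in 1,536-well plates. Screening doses were set so most cells survived, and baseline and induced cleaved-PARP levels vary greatly across cell lines.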
# Key:
# Test in all cases: cleaved PARP positive nuclei fraction relative to DMSO control; melanoma cells; higher = more apoptosis
# Conditions in all cases: library dose: low library concentration; 72 h
# MZ2-MEL = system: MZ2-MEL
# MeWo = system: MeWo
# RPMI7951 = system: RPMI7951
# RVH-421 = system: RVH-421
# SkMel28 = system: SkMel28
# SkMel2 = system: SkMel2
# SkMel30 = system: SkMel30
# UACC62 = system: UACC62
SMILES,cleaved PARP positive nuclei fraction (MZ2-MEL) [%],cleaved PARP positive nuclei fraction (MeWo) [%],cleaved PARP positive nuclei fraction (RPMI7951) [%],cleaved PARP positive nuclei fraction (RVH-421) [%],cleaved PARP positive nuclei fraction (SkMel28) [%],cleaved PARP positive nuclei fraction (SkMel2) [%],cleaved PARP positive nuclei fraction (SkMel30) [%],cleaved PARP positive nuclei fraction (UACC62) [%]
"CCCCCCCCc1ccc(CCC(N)(CO)CO)cc1 [fingolimod] + CC(C)C[C@H](NC(=O)[C@H](Cc1ccccc1)NC(=O)c1cnccn1)B(O)O [Bortezomib] (first compound 2 µM, partner dose 0.001 µM)",104,116,251,52.7,84.1,237,28.9,60.2
"C[C@]1(O)C[C@@H](c2nc(-c3ccc4ccc(-c5ccccc5)nc4c3)c3c(N)nccn32)C1 + CN(c1ncccc1CNc1nc(Nc2ccc3c(c2)CC(=O)N3)ncc1C(F)(F)F)S(C)(=O)=O [PF562271] (first compound 0.4 µM, partner dose 0.08 µM)",201,47.2,222,207,97.5,156,106,14.8
"CC1(C)CCC(c2ccc(Cl)cc2)=C(CN2CCN(c3ccc(C(=O)NS(=O)(=O)c4ccc(N[C@H](CCN5CCOCC5)CSc5ccccc5)c(S(=O)(=O)C(F)(F)F)c4)cc3)CC2)C1 + Cn1c(Nc2ccc(C(F)(F)F)cc2)nc2cc(Oc3ccnc(-c4ncc(C(F)(F)F)[nH]4)c3)ccc21 [CHIR265] (first compound 0.4 µM, partner dose 0.08 µM)",224,794,515,365,113,407,158,236
"CC(=O)O[C@@]12CO[C@@H]1C[C@H](O)[C@@]1(C)C(=O)[C@H](O)C3=C(C)[C@@H](OC(=O)[C@H](O)[C@@H](NC(=O)OC(C)(C)C)c4ccccc4)C[C@@](O)([C@@H](OC(=O)c4ccccc4)[C@H]21)C3(C)C [Docetaxel] + Nc1nc(F)nc2c1ncn2[C@@H]1O[C@H](CO)[C@@H](O)[C@@H]1O [fludarabine] (first compound 0.0001 µM, partner dose 0.2 µM)",494,2050,461,92.1,432,759,809,960
"Cn1sc(=O)n(Cc2ccccc2)c1=O + NC(=O)c1ccc(N(C(N)=O)c2c(F)cccc2F)nc1-c1ccc(F)cc1F [VX702] (first compound 0.4 µM, partner dose 0.4 µM)",75,216,53.9,113,77.4,3050,57.4,74.1
"CC1(C)CCC(c2ccc(Cl)cc2)=C(CN2CCN(c3ccc(C(=O)NS(=O)(=O)c4ccc(N[C@H](CCN5CCOCC5)CSc5ccccc5)c(S(=O)(=O)C(F)(F)F)c4)cc3)CC2)C1 + NC(=O)c1ccc(N(C(N)=O)c2c(F)cccc2F)nc1-c1ccc(F)cc1F [VX702] (first compound 0.4 µM, partner dose 0.4 µM)",121,435,146,566,58.9,145,140,149
"C[C@]1(O)C[C@@H](c2nc(-c3ccc4ccc(-c5ccccc5)nc4c3)c3c(N)nccn32)C1 + CC(=O)O[C@@]12CO[C@@H]1C[C@H](O)[C@@]1(C)C(=O)[C@H](O)C3=C(C)[C@@H](OC(=O)[C@H](O)[C@@H](NC(=O)OC(C)(C)C)c4ccccc4)C[C@@](O)([C@@H](OC(=O)c4ccccc4)[C@H]21)C3(C)C [Docetaxel] (first compound 0.4 µM, partner dose 0.0001 µM)",435,237,468,77.2,133,733,436,698
"C[C@@H](N)c1ccc(C(=O)Nc2ccnc3[nH]ccc23)cc1 + Nc1cccc2c1CN(C1CCC(=O)NC1=O)C2=O [lenalidomide] (first compound 0.4 µM, partner dose 1 µM)",160,306,137,88.1,167,112,86.4,45.5
"Cn1cnc2c(F)c(Nc3ccc(Br)cc3Cl)c(C(=O)NOCCO)cc21 [selumetinib] + Cn1nnc2c(C(N)=O)ncn2c1=O [temozolomide] (first compound 0.015 µM, partner dose 2 µM)",113,179,48.5,119,122,79.3,264,292
"CC1(C)CCC(c2ccc(Cl)cc2)=C(CN2CCN(c3ccc(C(=O)NS(=O)(=O)c4ccc(N[C@H](CCN5CCOCC5)CSc5ccccc5)c(S(=O)(=O)C(F)(F)F)c4)cc3)CC2)C1 + CN1CCN(c2ccc3nc(-c4c(N)c5c(F)cccc5[nH]c4=O)[nH]c3c2)CC1 [Dovitinib] (first compound 0.4 µM, partner dose 0.1 µM)",279,283,77.8,153,336,172,194,226
"CCN(CC)CCNC(=O)c1c(C)[nH]c(/C=C2\C(=O)Nc3ccc(F)cc32)c1C [sunitinib] + CC(=O)O[C@@]12CO[C@@H]1C[C@H](O)[C@@]1(C)C(=O)[C@H](O)C3=C(C)[C@@H](OC(=O)[C@H](O)[C@@H](NC(=O)OC(C)(C)C)c4ccccc4)C[C@@](O)([C@@H](OC(=O)c4ccccc4)[C@H]21)C3(C)C [Docetaxel] (first compound 0.4 µM, partner dose 0.0001 µM)",523,496,206,307,549,370,643,193
"CCCCCCCCc1ccc(CCC(N)(CO)CO)cc1 [fingolimod] + CN1CCN(c2ccc3nc(-c4c(N)c5c(F)cccc5[nH]c4=O)[nH]c3c2)CC1 [Dovitinib] (first compound 2 µM, partner dose 0.1 µM)",68.8,74.7,51.5,39.3,86.4,66.1,20.3,65.4
"C[C@]1(O)C[C@@H](c2nc(-c3ccc4ccc(-c5ccccc5)nc4c3)c3c(N)nccn32)C1 + C[C@@H](Oc1cc(-c2cnn(C3CCNCC3)c2)cnc1N)c1c(Cl)ccc(F)c1Cl [Crizotinib] (first compound 0.4 µM, partner dose 0.2 µM)",74.1,164,263,76.3,62.4,,102,85.6
"CCN(CC)CCNC(=O)c1c(C)[nH]c(/C=C2\C(=O)Nc3ccc(F)cc32)c1C [sunitinib] + C#Cc1cccc(Nc2ncnc3cc(OCCOC)c(OCCOC)cc23)c1 [erlotinib] (first compound 0.4 µM, partner dose 0.8 µM)",91.8,61,121,104,85.7,52.6,92.3,136
"Cn1sc(=O)n(Cc2ccccc2)c1=O + CN1CCN(c2ccc3nc(-c4c(N)c5c(F)cccc5[nH]c4=O)[nH]c3c2)CC1 [Dovitinib] (first compound 0.4 µM, partner dose 0.1 µM)",157,114,113,173,247,80.4,58.9,115
"NC1(c2ccc(-c3nc4ccn5c(=O)[nH]nc5c4cc3-c3ccccc3)cc2)CCC1 + COCC[n+]1c2c(n(Cc3cnccn3)c1C)C(=O)c1ccccc1C2=O [YM155] (first compound 0.4 µM, partner dose 0.0004 µM)",275,135,134,48.2,119,106,230,82.7
"Cn1sc(=O)n(Cc2ccccc2)c1=O + COc1ccc(Cl)c(Nc2nc3ccccc3nc2NS(=O)(=O)c2cccc(NC(=O)C(C)(C)N)c2)c1 [XL147] (first compound 0.4 µM, partner dose 0.8 µM)",71.3,203,170,50.9,82.2,149,147,77
"NC(=O)c1ccc(N(C(N)=O)c2c(F)cccc2F)nc1-c1ccc(F)cc1F + CC(=O)c1c(C)c2cnc(Nc3ccc(N4CCNCC4)cn3)nc2n(C2CCCC2)c1=O [palbociclib] (first compound 0.4 µM, partner dose 0.04 µM)",92.5,12.3,98.7,34.8,45.9,73.8,46.2,123
"CN(c1ncccc1CNc1nc(Nc2ccc3c(c2)CC(=O)N3)ncc1C(F)(F)F)S(C)(=O)=O + Cc1cc(Nc2cc(N3CCN(C)CC3)nc(/C=C/c3ccccc3)n2)n[nH]1 [ENMD2076] (first compound 0.08 µM, partner dose 0.04 µM)",77.8,117,44.3,24,52.7,76.4,74.9,63.8
"Cn1sc(=O)n(Cc2ccccc2)c1=O + CO[C@H]1C[C@@H]2CC[C@@H](C)[C@@](O)(O2)C(=O)C(=O)N2CCCC[C@H]2C(=O)O[C@H]([C@H](C)C[C@@H]2CC[C@@H](OCCO)[C@H](OC)C2)CC(=O)[C@H](C)/C=C(\C)[C@@H](O)[C@@H](OC)C(=O)[C@H](C)C[C@H](C)/C=C/C=C/C=C/1C [everolimus] (first compound 0.4 µM, partner dose 0.02 µM)",53,83.1,73.4,157,300,,59.8,351

# A few values from the results shown.
# In cleaved PARP positive nuclei fraction (RVH-421) [%], CC1(C)CCC(c2ccc(Cl)cc2)=C(CN2CCN(c3ccc(C(=O)NS(=O)(=O)c4ccc(N[C@H](CCN5CCOCC5)CSc5ccccc5)c(S(=O)(=O)C(F)(F)F)c4)cc3)CC2)C1 + Cn1c(Nc2ccc(C(F)(F)F)cc2)nc2cc(Oc3ccnc(-c4ncc(C(F)(F)F)[nH]4)c3)ccc21 [CHIR265] (first compound 0.4 µM, partner dose 0.08 µM) has 365
# In cleaved PARP positive nuclei fraction (RVH-421) [%], Cn1sc(=O)n(Cc2ccccc2)c1=O + CN1CCN(c2ccc3nc(-c4c(N)c5c(F)cccc5[nH]c4=O)[nH]c3c2)CC1 [Dovitinib] (first compound 0.4 µM, partner dose 0.1 µM) has 173
